The values below come from publication PMC5253420.

Test [1] concerns the target T1, endogenous hexokinase 2 (HK2), SW480 cells (human (endogenous in SW480)) (UniProt P52789).
T1 sequence: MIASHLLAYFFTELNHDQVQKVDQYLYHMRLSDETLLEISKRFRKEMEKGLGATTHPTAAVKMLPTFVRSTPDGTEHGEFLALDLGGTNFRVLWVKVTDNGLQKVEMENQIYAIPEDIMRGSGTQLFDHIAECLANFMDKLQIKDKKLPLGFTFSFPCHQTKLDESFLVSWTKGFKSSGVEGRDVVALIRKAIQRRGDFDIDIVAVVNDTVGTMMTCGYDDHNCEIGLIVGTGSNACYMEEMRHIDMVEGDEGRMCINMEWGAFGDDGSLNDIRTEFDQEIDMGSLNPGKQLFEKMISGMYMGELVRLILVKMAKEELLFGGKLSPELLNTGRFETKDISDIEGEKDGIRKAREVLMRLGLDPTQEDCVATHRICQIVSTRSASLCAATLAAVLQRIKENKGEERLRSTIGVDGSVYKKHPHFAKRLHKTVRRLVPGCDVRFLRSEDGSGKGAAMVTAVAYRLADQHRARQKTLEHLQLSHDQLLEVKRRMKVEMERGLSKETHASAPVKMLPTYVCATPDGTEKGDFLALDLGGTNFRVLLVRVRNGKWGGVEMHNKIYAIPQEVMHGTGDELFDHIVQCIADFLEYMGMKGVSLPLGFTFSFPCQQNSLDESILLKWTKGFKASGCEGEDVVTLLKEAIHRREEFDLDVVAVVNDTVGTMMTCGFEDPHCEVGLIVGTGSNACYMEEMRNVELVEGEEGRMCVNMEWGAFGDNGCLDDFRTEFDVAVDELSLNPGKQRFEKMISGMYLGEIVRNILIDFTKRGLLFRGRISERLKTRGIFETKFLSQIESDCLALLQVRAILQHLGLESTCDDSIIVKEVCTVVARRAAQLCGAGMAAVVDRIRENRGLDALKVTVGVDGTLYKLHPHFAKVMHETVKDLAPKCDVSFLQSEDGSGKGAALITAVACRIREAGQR
As to the kind of experiment: co-IP; SW480 cells under regular growth condition, cytosolic fraction; precipitated with the HK2 antibody (mock: protein A/G beads alone); blots for PHLPP1, PHLPP2, HK2 and Akt.

For test [2], the target named is T1, endogenous hexokinase 2 (HK2), SW480 cells (human (endogenous in SW480)). Nature of the test: co-IP; SW480 cells under regular growth condition, mitochondrial fraction; precipitated with the HK2 antibody (mock: protein A/G beads alone); blots for PHLPP1, PHLPP2, HK2 and Akt.
Test [3] shares this target. As to the kind of experiment: condition: only cells treated with Akt inhibitor VIII (1 μM, 16 h); co-IP; SW480 cells treated with Akt-VIII for 16 h, fractionated into cytosolic and mitochondrial fractions; precipitated with the HK2 antibody; blots for PHLPP1, PHLPP2, HK2 and Akt.
In test [4] the target is T2, HK2 T473A (phosphorylation-deficient mutant), mouse, in pcDNA4-Myc/His (mouse) (UniProt O08528).
T2 sequence: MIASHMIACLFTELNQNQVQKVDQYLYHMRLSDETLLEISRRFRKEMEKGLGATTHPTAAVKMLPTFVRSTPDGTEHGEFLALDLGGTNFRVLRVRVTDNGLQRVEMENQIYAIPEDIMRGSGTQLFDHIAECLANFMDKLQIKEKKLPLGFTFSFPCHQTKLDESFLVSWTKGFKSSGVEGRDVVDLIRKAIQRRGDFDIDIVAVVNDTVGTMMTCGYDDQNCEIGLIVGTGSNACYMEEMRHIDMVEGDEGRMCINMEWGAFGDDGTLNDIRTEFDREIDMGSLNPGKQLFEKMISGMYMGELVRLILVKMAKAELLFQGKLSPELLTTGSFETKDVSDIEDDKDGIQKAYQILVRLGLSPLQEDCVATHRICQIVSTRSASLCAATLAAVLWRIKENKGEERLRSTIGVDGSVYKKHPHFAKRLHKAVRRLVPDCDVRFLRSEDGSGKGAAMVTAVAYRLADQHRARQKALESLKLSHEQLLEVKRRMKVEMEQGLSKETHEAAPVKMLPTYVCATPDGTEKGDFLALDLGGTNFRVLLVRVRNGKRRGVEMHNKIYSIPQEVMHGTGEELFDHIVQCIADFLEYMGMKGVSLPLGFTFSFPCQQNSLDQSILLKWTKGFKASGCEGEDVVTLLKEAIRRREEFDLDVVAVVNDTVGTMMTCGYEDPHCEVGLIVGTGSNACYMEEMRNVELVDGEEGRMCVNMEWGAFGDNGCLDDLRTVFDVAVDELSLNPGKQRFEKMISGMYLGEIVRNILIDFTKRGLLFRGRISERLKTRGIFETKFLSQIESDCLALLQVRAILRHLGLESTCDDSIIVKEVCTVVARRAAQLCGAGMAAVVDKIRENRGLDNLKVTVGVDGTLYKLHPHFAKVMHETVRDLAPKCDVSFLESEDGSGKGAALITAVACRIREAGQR
As to the kind of experiment: co-IP; 293T cells transfected with WT, T473A or T473D HK2, control condition; lysates (1% Triton X-100 lysis buffer) precipitated with the HK2 antibody and protein A/G agarose at 4 °C overnight; endogenous Akt detected by Western blot. For orientation: In western blotting, separated proteins are transferred to a membrane and probed.

Test [5] addresses T3, HK2 T473D (phospho-mimetic mutant), mouse, in pcDNA4-Myc/His (mouse) (UniProt O08528).
T3 sequence: T2 sequence with A473D
The description is as above.

The target of test [6] is T2, HK2 T473A (phosphorylation-deficient mutant), mouse, in pcDNA4-Myc/His (mouse). As to the kind of experiment: co-IP; 293T cells transfected with HA-PHLPP1 together with WT, T473A or T473D HK2 and Flag-Akt; HK2 antibody precipitate blotted for PHLPP1, HK2 and Akt.
Test [7] concerns the target T3, HK2 T473D (phospho-mimetic mutant), mouse, in pcDNA4-Myc/His (mouse). The description is as above.

Residue numbers refer to the chain shown, from its start. No constants are given. Whether binding was seen depends on the method and setting. In cells and extracts the contact can be indirect. For some of these results: Binding calls can cover weak binding; strength is not graded here. For some of these results: Sequences can lack the tags named with a protein.

As to “endogenous Akt (SW480 cells) (human (endogenous in SW480)) (enzyme)”, the binding entry is “no binding (only in the cytosolic fraction)” in test [1], “binds” in test [2] and “no binding” in test [3].

As to “endogenous Akt (293T cells) (human (endogenous in 293T)) (enzyme)”, the binding entry in test [4] and in test [5] was “no binding” throughout.

Regarding Flag-Akt (enzyme), the binding result in test [6] and in test [7] was “binds weakly” throughout.
